The source holds more than one record for some entries. Only these are listed. An entry can have further records. Values given together differ, and nothing given here explains why; dose, time, organism, isomer or construct need not be as stated for each record.
Tests used:
[1] = target: T1, FFA1-Nluc (Homo sapiens, UniProt O14842); test: NanoBRET binding; conditions: tested form: TFA
[2] = target: Nluc-FFA1 (Homo sapiens, UniProt O14842); test: NanoBRET binding; conditions: for Specific BRET (540/450) Ratio: Nluc-FFA1, tested form: TFA
[3] = target: T1, FFA1-Nluc; test: DISCo-BRET; format: binding; conditions: tested form: TFA; for Specific BRET (690/450): Sup Fig 3Ci
[4] = target: T1, FFA1-Nluc; test: Ca2+ mobilisation antagonism of FFA1 agonists; format: cell-based

Chains of the proteins cited; added tags and fusions are not shown.
UniProt O14842, whole entry: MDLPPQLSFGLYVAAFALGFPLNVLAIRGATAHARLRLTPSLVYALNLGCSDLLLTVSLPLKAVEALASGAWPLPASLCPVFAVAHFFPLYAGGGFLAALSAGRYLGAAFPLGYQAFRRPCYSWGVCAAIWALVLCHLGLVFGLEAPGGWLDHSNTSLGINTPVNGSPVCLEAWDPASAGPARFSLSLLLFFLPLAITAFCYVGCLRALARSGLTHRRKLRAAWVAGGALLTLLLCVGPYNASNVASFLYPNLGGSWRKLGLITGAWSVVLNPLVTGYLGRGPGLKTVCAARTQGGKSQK

Compound: COc1ccc(C(=O)N(CC(C)(C)CNc2ccc([N+](=O)[O-])c3nonc23)c2cccc(C)n2)c(N2CCC(COc3cccc(C(CC(=O)O)C4CC4)c3)CC2)c1 (racemic)
- Specific BRET (540/450) Ratio ([1]; [TUG-2597] 100 nM): 0.0022, 0.0194, 0.0100, 0.0027, 0.0079, 0.0078
- Specific BRET (540/450) Ratio ([1]; [TUG-2597] 1000 nM): 0.0440, 0.0459, 0.0330, 0.0218, 0.0442, 0.0405
- Specific BRET (540/450) Ratio ([2]; [TUG-2597] 31.6 nM): 0.0094, 0.0011, 0.0099, 0.0041, 0.0032, 0.0049
- Specific BRET (540/450) Ratio ([2]; [TUG-2597] 316 nM): 0.0438, 0.0191, 0.0234, 0.0402, 0.0415, 0.0259
- Specific BRET (690/450) ([3]; TUG-2591 0 nM, TUG-2597 + TUG-2193): 0.0066, 0.0093, 0.0103, 0.0068, 0.01515, 0.01805, 0.016, 0.0148
- Specific BRET (690/450) ([3]; TUG-2591 0 nM, TUG-2597 alone): 0.0038, 0.004, 0.0066, 0.0023, 0.01995, 0.01355, 0.0076, 0.0085
- Specific BRET (540/450) ([3]; Sup Fig 3Cii, TUG-2591 0 nM, TUG-2597 + TUG-905): 0.1401, 0.1383, 0.1336, 0.135, 0.2328, 0.2401, 0.302, 0.2913
- Specific BRET (540/450) ([3]; Sup Fig 3Cii, TUG-2591 0 nM, TUG-2597 + TUG-2193): 0.01415, 0.01255, 0.0231, 0.0242, 0.0189, 0.0081, 0.04775, 0.04375
- Specific BRET (540/450) ([3]; Sup Fig 3Cii, TUG-2591 0 nM, TUG-2597 alone): 0.09455, 0.08025, 0.0915, 0.0776, 0.1779, 0.1401, 0.1888, 0.1787
- Specific BRET (540/450) ([3]; TUG-2597 + TUG-2193, 0 nM TUG-2591): 0.04077, 0.02337, 0.007275, 0.06017, 0.06628, 0.03918, 0.03148
- Specific BRET (540/450) ([3]; TUG-2597 alone, 0 nM TUG-2591): 0.1903, 0.09917, 0.1025, 0.1812, 0.1709, 0.2288

Compound: CCCN1C(=O)c2ccccc2[C@@H](C(=O)O)[C@@H]1c1ccc(OCc2cccc(-c3ccc(OCCCS(C)(=O)=O)cc3C)c2)cc1 (relative stereo)
- Ca2% Response (%) ([4]; response to log[T360] -7 in presence of TUG-2745, Sup Fig 6H): 53.43, 42.62, 36.36, 24.38, 43.00, 44.59%

Compound: COc1ccc(CCCC(C)(C)C)c(N2CCC(COc3cccc(C(CC(=O)O)C4CC4)c3)CC2)c1 (stereo not shown)
- Specific BRET (540/450)% ([2]; Figure 4Cii, log[Ligand] -6, technical duplicates): 20.10, 10.18, 5.96, 18.84, 19.05, 15.45, 6.66, 7.44%
- Ca2% Response (%) ([4]; log[T360] -5, with PPTQ (concentration not given), Sup Figure 6D): 87.22%, 94.37%, 28.64%
- Ca2% Response (%) ([4]; log[T360] -6, column head 31.6 μM (antagonist not given), Sup Figure 6F): 54.99, 50.24, 30.85, 31.84, 58.11, 86.46%
- Ca2% Response (%) ([4]; log[T360] -6, with 3.16 μM GW1100): 12.50, 76.32, 68.55, 75.60, 77.63%
- Ca2% Response (%) ([4]; log[T360] -6, with PPTQ (concentration not given), Sup Figure 6D): 54.62, 35.97, 86.96, 78.41%
- Ca2% Response (%) ([4]; log[T360] -6.5, 10 μΜ (antagonist not given), Sup Figure 6F): 20.59, 14.69, 14.96, 14.43, 47.18, 63.06%
- Ca2% Response (%) ([4]; log[T360] -8, Veh (no antagonist), Sup Figure 6F): 7.93, 10.40, 15.51, 4.01, 17.19, 3.30%

From PMC12254266
